According to PubChem BioAssay AID2685 (National Center for Advancing Translational Sciences (NCATS), 2010):
The list shows a part of the results. Further columns of the screen follow, without active or inactive calls. Compounds called inactive in the main read-out are mostly missing here. Words in brackets tell the shape of the fitted curve; partial curves, single points and poor fits give uncertain potencies.

Test: qHTS Assay for Lipid Storage Modulators in Drosophila S3 Cells;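 on cell number change: cells counted by Cell Tracker Red CMTPX staining in the red channel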
Settings: BODIPY lipid droplet fluorescence, 18-24 h; for cell number change: measured here: cell count max response, cells fed with added oleic acid
How it was run: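 Drosophila S3 cells got compounds at several concentrations plus oleic acid (400 uM solution). Laser-scanning cytometry with 488 nm excitation read lipid droplets at 500-530 nm and cells at 575-640 nm. Percent activity was relative to 20 uM Triacsin C.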

[1] = measured here: lipid fluorescence (Fed channel) AC50, cells fed with added oleic acid
[2] = measured here: cell number channel AC50, cells fed with added oleic acid

Row | Structure (SMILES) | cell number change [%] | AC50 [1] | AC50 [2]
1 | COc1ccc(C(C)=O)cc1COC(=O)c1ccc(C)c(S(=O)(=O)N2CCOCC2)c1 | -21.2 | 8.2 µM [falling, partial curve, poor fit] | –
2 | O=C(OCn1nnc2ccccc2c1=O)c1cccnc1Cl | – | 29.1 µM [falling, single point] | –
3 | O=C1CSC(=Nc2ccc(Cl)cc2)N1 | 1.1 | 6.51 µM [falling, single point] | 6.51 µM [falling, single point]
4 | CCc1nnc(N2C(=O)c3ccccc3C2(O)c2ccccc2)s1 (centres undefined) | 4.24 | 0.116 µM [falling, full curve, poor fit] | 0.146 µM [falling, full curve, poor fit]
5 | CC(=O)Nc1ccc(-c2csc(NCc3ccccc3)n2)cc1 | -17.4 | 2.31 µM [falling, single point] | 2.31 µM [falling, single point]
6 | COc1cc(C(=O)NC(C)C2CC3CCC2C3)cc(OC)c1OC (centres undefined) | -22.6 | – | –
7 | N#CCN1CCN(CC(=O)c2ccc(Br)cc2)CC1 | 9.3 | – | –
8 | O=C(c1ccccc1)N1CCN(C(=O)c2cc3ccccc3o2)CC1 | 26.5 | 29.1 µM [rising, single point] | 2.31 µM [rising, full curve, poor fit]
9 | Cc1ccc(C(=O)Nc2ccc(C(=O)/C=C/c3cccs3)cc2)cc1 | -15.4 | 18.4 µM [falling, single point] | –
10 | COc1ccc(/C=N/N2CCN(C3c4ccccc4-c4ccccc43)CC2)cc1O | 4.4 | – | –
11 | O=C(CCc1ccccc1)NC(=S)Nc1cccc(Br)c1 | 3.69 | 29.1 µM [rising, single point] | –
12 | O=C(CSc1nnc(NC(=O)c2ccccc2[N+](=O)[O-])s1)NCc1ccco1 | – | 0.116 µM [rising, full curve, poor fit] | –
13 | COc1ccccc1CNC(=O)C1Cc2cc(S(=O)(=O)N3CCCCC3)ccc2N1C(C)=O (centres undefined) | -27.8 | – | 0.0517 µM [falling, full curve, poor fit]
14 | C=CCn1c(SCC(N)=O)nc2scc(-c3ccc(C)o3)c2c1=O | 13.4 | 0.651 µM [rising, full curve, poor fit] | –
15 | COc1ccc(OC)c(Nc2nc(-c3sc(NC(=O)c4ccccc4)nc3C)cs2)c1 | -12 | – | –
16 | COc1ccc(NC(=O)CCCC(=O)c2ccccc2)c(OC)c1 | -57.8 | 20.6 µM [falling, single point] | 23.1 µM [falling, single point]
17 | O=C(c1ccccc1Cl)N1CCC(N2CCC(C(=O)N3CCCC3)CC2)CC1 | 15.3 | 7.31 µM [rising, partial curve] | –
18 | COc1ccc(C(CNC(=O)c2ccc(Cl)c(S(=O)(=O)N3CCCC3)c2)N2CCCC2)cc1 (centres undefined) | 20.3 | 0.461 µM [falling, full curve, poor fit] | 0.517 µM [falling, single point]
19 | O=C(NCc1cccs1)c1cc(-c2cccs2)on1 | 10.3 | – | –
20 | Nc1c(C(=O)Nc2ccc(F)cc2)sc2nc(-c3ccco3)ccc12 | -33.9 | – | 7.31 µM [falling, partial curve]

Row | Structure (SMILES) | cell number change [%] | AC50 [1] | AC50 [2]
21 | COc1ccc(C(=O)NCC23C=CC(O2)C2C(=O)N(Cc4ccccc4)C(=O)C23)cc1 (centres undefined) | -15.5 | – | –
22 | CC(C)(C)OC(=O)NCC(=O)N1CCC(C(=O)O)CC1 | -2.58 | – | –
23 | N#C/C(=C/c1ccc(CNS(=O)(=O)c2ccccc2)o1)C(=O)NCc1ccccc1 | -13 | 2.59 µM [rising, single point] | –
24 | CC1=C(C(=O)Nc2ccccc2C)C(c2ccc(C)o2)n2c(s/c(=C/c3ccccc3)c2=O)=N1 (centres undefined) | 4.42 | 2.31 µM [rising, partial curve] | 0.731 µM [rising, full curve]
25 | CN(C(=O)CCc1nnc(CCCCc2ccccc2)o1)C1CCOCC1 | 4.71 | 16.4 µM [rising, single point] | –
26 | O=C(NCc1ccc2c(c1)OCO2)C1CC(=O)N(C2CCCCCC2)C1 (centres undefined) | -11.4 | 2.91 µM [rising, full curve, poor fit] | –
27 | Cc1cc(Cl)ccc1OC(C)C(=O)N1CCCN(C(=O)C(C)Oc2ccc(Cl)cc2C)CC1 (centres undefined) | -27.7 | 11.6 µM [falling, single point] | –
28 | S=C(NCc1ccco1)N/N=C/c1ccc(Cl)cc1 | -40.7 | 29.1 µM [falling, single point] | 32.6 µM [falling, single point]
29 | N#CCN=C(c1ccccc1)c1ccccc1 | 4.21 | 1.16 µM [rising, partial curve] | –
30 | COc1ccccc1C(CNC(=O)c1ccc(-c2ccccc2Cl)o1)N1CCCC1 (centres undefined) | 30 | 0.146 µM [rising, full curve, poor fit] | 0.0731 µM [rising, full curve, poor fit]
31 | COc1ccc2[nH]c(C(=O)N3CCC(CO)(Cc4cccc(C(F)(F)F)c4)CC3)c(C)c2c1 | -33.4 | – | 29.1 µM [falling, single point]
32 | O=S(=O)(c1ccc(OCC(O)CN2CCCC2)cc1)N1CCOCC1 (centres undefined) | -2.13 | 2.31 µM [falling, partial curve] | –
33 | COc1ccc(OC)c(NC(=O)c2cc3ccccc3o2)c1 | 2.99 | 0.461 µM [rising, partial curve] | –
34 | Cc1cccc(NC(=O)NNC(=O)c2cc3ccccc3cc2O)c1C | 12 | 2.31 µM [rising, full curve, poor fit] | –
35 | O=S(=O)(c1cccc2ccccc12)n1nnc2ccccc21 | -49.1 | – | –
36 | O=C(CN1CCC(C(=O)c2ccc(Cl)cc2)CC1)NC1CCCC1 | 11.5 | – | –
37 | O=C(NCC1CC1(Cl)Cl)Nc1ccc(Cl)c(Cl)c1 (centres undefined) | 17.6 | 6.51 µM [falling, single point] | –
38 | N/C(Cc1ccccc1)=N\OC(=O)c1cccc2ccccc12 | 1.84 | – | 0.651 µM [falling, single point]
39 | COc1cccc(NC(=O)CN(C)C(=O)c2ccc(NC(=O)CC3SC(N4CCCCC4)=NC3=O)cc2)c1 (centres undefined) | 3.95 | 7.31 µM [rising, partial curve] | –
40 | O=C(Nc1ccccc1N1CCCCC1)c1ncoc1-c1cccc(F)c1 | -6.23 | 14.6 µM [rising, single point] | –

Row | Structure (SMILES) | cell number change [%] | AC50 [1] | AC50 [2]
41 | Cc1ccc(NC(=S)N=Nc2c(O)[nH]c3ccccc23)cc1 | 18.5 | 0.206 µM [rising, full curve] | –
42 | COc1ccc(NC(=O)C(CCS(C)(=O)=O)NC(C)=O)cc1 (centres undefined) | -4.9 | 0.00411 µM [rising, full curve, poor fit] | 0.00517 µM [rising, full curve, poor fit]
43 | COC(=O)c1cc(NCc2ccccc2F)ccc1N1CCOCC1 | 95.4 | 1.64 µM [rising, full curve, poor fit] | 18.4 µM [rising, single point]
44 | COCCOc1cc(N(CC(=O)N(C)C)S(=O)(=O)c2ccccc2)c(Cl)cc1Cl | 27.5 | 0.00461 µM [rising, full curve, poor fit] | –
45 | Cc1nc(-c2ccccn2)sc1C(=O)O | -8.06 | 6.51 µM [falling, single point] | –
46 | COc1ccccc1C(=O)N1CCN(C(=O)Cc2ccccc2)CC1 | 27.4 | 6.51 µM [falling, single point] | –
47 | CCN(CC)C(=O)Oc1ccc(OC(=O)N(CC)CC)cc1 | -5.41 | 6.51 µM [falling, partial curve, poor fit] | –
48 | CC(C)(C)c1ccc(NC(=O)N2CCN(c3ccc([N+](=O)[O-])cn3)CC2)cc1 | -37.5 | 32.6 µM [falling, single point] | 32.6 µM [falling, single point]
49 | Cc1ccccc1S(=O)(=O)Cc1ccc(C(=O)NCCN(C)Cc2ccccc2)o1 | 30.8 | 0.116 µM [falling, full curve, poor fit] | 1.84 µM [rising, partial curve]
50 | CCNC(=O)COC(=O)c1cc(S(=O)(=O)N2CCCCC2)ccc1C | 14.1 | 32.6 µM [rising, single point] | –
51 | Cc1occc1C(=O)NNC1=CC(=O)CC(C)(C)C1 | -40.6 | 29.1 µM [falling, single point] | 0.58 µM [falling, full curve]
52 | CC1CCN(c2nc(-c3ccccc3)cc(C(F)(F)F)n2)CC1 | 167 | 20.6 µM [rising, single point] | 29.1 µM [rising, partial curve]
53 | CCOC(=O)C1CCN(S(=O)(=O)Cc2ccccc2)CC1 | 1.28 | – | –
54 | O=C(CSc1ncnc2c1oc1ccccc12)Nc1cccc(Cl)c1 | -20.9 | 29.1 µM [falling, single point] | –
55 | C/C(=N\NC(=O)c1nnn(-c2nonc2N)c1CSc1ccc(Cl)cc1)c1ccco1 | -3.44 | 29.1 µM [falling, single point] | 6.51 µM [falling, single point]
56 | Cc1ccc(C)c(OCC(=O)Nc2cccc(C(=O)O)c2)c1C | -29.4 | 3.66 µM [falling, full curve] | –
57 | COC(=O)C1=C(C)N(Cc2ccccc2)C(=NCC(C)C)N[C@H]1c1cccc(F)c1 | -0.872 | 29.1 µM [falling, single point] | –
58 | COc1ccc(Nc2nc(N)nc(C(F)(F)F)n2)c(OC)c1 | – | 6.51 µM [rising, single point] | –

A second format for some results above:

| Row | Structure (SMILES) | cell number change [%] | AC50 [1] | AC50 [2] |
| --- | --- | --- | --- | --- |
| 49 | Cc1ccccc1S(=O)(=O)Cc1ccc(C(=O)NCCN(C)Cc2ccccc2)o1 | 30.8 | 0.116 µM [falling, full curve, poor fit] | 1.84 µM [rising, partial curve] |
| 57 | COC(=O)C1=C(C)N(Cc2ccccc2)C(=NCC(C)C)N[C@H]1c1cccc(F)c1 | -0.872 | 29.1 µM [falling, single point] | – |
